Measurements published in patent US7482347B2, “Piperazine derivatives with CCR-3 inhibiting activity” (priority 2004, dated 2009).
pIC50: −log10 of the molar value. The match of structure and compound is tentative.

Amino acid sequences for entries named in this document (tags omitted).
UniProt P51677, whole entry: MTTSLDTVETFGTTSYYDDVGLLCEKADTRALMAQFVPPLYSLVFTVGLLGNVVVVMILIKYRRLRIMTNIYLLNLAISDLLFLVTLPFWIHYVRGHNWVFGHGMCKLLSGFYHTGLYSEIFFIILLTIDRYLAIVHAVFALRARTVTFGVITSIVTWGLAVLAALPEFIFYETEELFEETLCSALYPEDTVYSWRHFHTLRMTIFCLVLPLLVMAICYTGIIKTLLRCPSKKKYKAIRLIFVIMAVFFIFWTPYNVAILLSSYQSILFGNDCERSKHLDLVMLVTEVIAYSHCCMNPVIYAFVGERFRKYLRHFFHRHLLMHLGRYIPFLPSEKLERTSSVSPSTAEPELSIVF

Target: human CCR-3 (Homo sapiens, UniProt P51677)
Assay: [125I]-human eotaxin binding SPA assay on membranes of RBL-2H3 cells stably expressing CCR3
Conditions: read-out: IC50 (inhibition of binding of [125I]-human eotaxin to CCR-3), membranes of RBL-2H3 cells expressing CCR3, 50 pM [125I]-human eotaxin, 4 hours at room temperature
Excerpt: Recombinant cells expressing human CCR-3 are captured by wheatgerm agglutinin (WGA) polyvinyltoluidene (PVT) SPA beads (available from Amersham), through a specific interaction between the WGA and carbohydrate residues of glycoproteins on the surface of the cells. [^125I]-human eotaxin (available from Amersham) binds specifically to CCR-3 receptors bringing the [^125I]-human eotaxin in close proximity to the SPA beads. Emitted â-particles from the [^125I]-human eotaxin excite, by its proximity, the fluorophore in the beads and produce light.
Preparation of Assay Buffer: 5.96 g HEPES and 7.0 g sodium chloride are dissolved in distilled water and 1 M aqueous CaCl2 (1 ml) and 1M aqueous MgCl2 (5 ml) are added. The pH is adjusted to 7.6 with NaOH and the solution made to a final volume of 1 l using distilled water. 5 g bovine serum albumin and 0.1 g sodium azide are then dissolved in the solution and the resulting buffer stored at 4° C. A COMPLETE™ protease inhibitor cocktail tablet (available from Boehringer) is added per 50 ml of the buffer on the day of use. […]
The assay is performed in a final volume of 250 μl per well of an OPTIPLATE™ microplate (ex Canberra Packard). […] The resulting scintillations are counted using a Canberra Packard TopCount, each well being counted for 1 minute. […]

- pIC50: 6.54
Structure (SMILES): COC(=O)c1sccc1S(=O)(=O)N1CCC(CN2CCN(Cc3ccc(F)cc3)CC2)CC1
